From patent US20110039331A1 (OSAKA UNIVERSITY, published 2011)
Results are given in words; binding and its absence hold for the method and conditions named. Some entries that bind do so weakly or less than the wild type.

Amino acid sequences for entries named in this document (tags omitted). A change or cut given only in a name is not applied to a line headed by its entry.
UniProt P01241: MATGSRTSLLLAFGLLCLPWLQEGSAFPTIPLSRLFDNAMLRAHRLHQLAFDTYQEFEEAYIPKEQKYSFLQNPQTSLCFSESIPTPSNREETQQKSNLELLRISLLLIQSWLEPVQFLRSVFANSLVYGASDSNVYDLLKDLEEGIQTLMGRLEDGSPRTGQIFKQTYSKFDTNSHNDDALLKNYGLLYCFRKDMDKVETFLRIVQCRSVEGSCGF
UniProt P02679: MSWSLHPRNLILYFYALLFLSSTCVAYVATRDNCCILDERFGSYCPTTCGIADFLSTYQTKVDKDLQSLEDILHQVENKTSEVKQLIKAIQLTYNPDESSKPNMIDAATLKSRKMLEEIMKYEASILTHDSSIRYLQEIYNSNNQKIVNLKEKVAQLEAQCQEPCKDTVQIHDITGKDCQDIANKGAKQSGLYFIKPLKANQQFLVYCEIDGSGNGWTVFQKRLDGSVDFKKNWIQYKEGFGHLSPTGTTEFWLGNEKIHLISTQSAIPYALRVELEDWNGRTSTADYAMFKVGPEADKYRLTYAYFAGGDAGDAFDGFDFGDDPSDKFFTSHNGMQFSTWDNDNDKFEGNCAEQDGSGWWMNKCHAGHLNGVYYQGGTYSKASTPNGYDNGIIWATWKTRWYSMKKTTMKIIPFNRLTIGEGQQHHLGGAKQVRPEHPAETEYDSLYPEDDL

Key:
[1] = biological target: T1, hGH-BAS-γC-P4×3, human growth factor/human fibrinogen γ chain C domain fusion protein with 3 repeats of the P4 sequence (human) (UniProt P01241+P02679); assay: pull-down from culture supernatant with P20.1 antibody-Sepharose, elution with eluents (1) to (8) of paragraph 190, SDS gel electrophoresis [b]
[2] = biological target: T2, hGH-BAS-γC-P4×5, human growth factor/human fibrinogen γ chain C domain fusion protein with 5 repeats of the P4 sequence (human) (UniProt P01241+P02679); assay: sandwich ELISA (legend of FIG. 21)
[3] = biological target: T1, hGH-BAS-γC-P4×3, human growth factor/human fibrinogen γ chain C domain fusion protein with 3 repeats of the P4 sequence (human); assay: sandwich ELISA (legend of FIG. 21)
[4] = biological target: T2, hGH-BAS-γC-P4×5, human growth factor/human fibrinogen γ chain C domain fusion protein with 5 repeats of the P4 sequence (human); assay: sandwich ELISA, capture by anti-hGH antibody HGH-B, detection by biotinylated P20.1 antibody at 5 µg/mL
[5] = biological target: T1, hGH-BAS-γC-P4×3, human growth factor/human fibrinogen γ chain C domain fusion protein with 3 repeats of the P4 sequence (human); assay: as above
[6] = biological target: T2, hGH-BAS-γC-P4×5, human growth factor/human fibrinogen γ chain C domain fusion protein with 5 repeats of the P4 sequence (human); assay: sandwich ELISA (legend of FIG. 22)
[7] = biological target: T1, hGH-BAS-γC-P4×3, human growth factor/human fibrinogen γ chain C domain fusion protein with 3 repeats of the P4 sequence (human); assay: sandwich ELISA (legend of FIG. 22)
[8] = biological target: T2, hGH-BAS-γC-P4×5, human growth factor/human fibrinogen γ chain C domain fusion protein with 5 repeats of the P4 sequence (human); assay: sandwich ELISA, capture by immobilized anti-hGH antibody HGH-B, detection by biotinylated P20.1 antibody (5 µg/mL) and peroxidase-labeled streptavidin, absorbance at 405 nm, dilutions of cell supernatant
[9] = biological target: T1, hGH-BAS-γC-P4×3, human growth factor/human fibrinogen γ chain C domain fusion protein with 3 repeats of the P4 sequence (human); assay: as above
[10] = biological target: T2, hGH-BAS-γC-P4×5, human growth factor/human fibrinogen γ chain C domain fusion protein with 5 repeats of the P4 sequence (human); assay: SPR (Biacore X-100), P20.1 antibody-immobilized chip, fusion protein flowed over
[11] = biological target: T2, hGH-BAS-γC-P4×5, human growth factor/human fibrinogen γ chain C domain fusion protein with 5 repeats of the P4 sequence (human); assay: sandwich ELISA, capture by P20.1 antibody immobilized at 10 µg/mL, detection by rabbit antiserum against the BAS sequence and peroxidase-labeled anti-rabbit IgG, dilutions of cell supernatant
[12] = biological target: T1, hGH-BAS-γC-P4×3, human growth factor/human fibrinogen γ chain C domain fusion protein with 3 repeats of the P4 sequence (human); assay: as above
[13] = biological target: T1, hGH-BAS-γC-P4×3, human growth factor/human fibrinogen γ chain C domain fusion protein with 3 repeats of the P4 sequence (human); assay: pull-down from culture supernatant with P20.1 antibody-Sepharose, elution with eluents (1) to (8) of paragraph 187, SDS gel electrophoresis [a]
[14] = biological target: T2, hGH-BAS-γC-P4×5, human growth factor/human fibrinogen γ chain C domain fusion protein with 5 repeats of the P4 sequence (human); assay: SPR (Biacore X-100), P20.1 antibody-immobilized sensor chip, fusion protein as analyte at 20 µL/min [c]
[15] = biological target: T1, hGH-BAS-γC-P4×3, human growth factor/human fibrinogen γ chain C domain fusion protein with 3 repeats of the P4 sequence (human); assay: SPR (Biacore X-100), P20.1 antibody-immobilized sensor chip, fusion protein as analyte at 20 µL/min [b]
[16] = biological target: T2, hGH-BAS-γC-P4×5, human growth factor/human fibrinogen γ chain C domain fusion protein with 5 repeats of the P4 sequence (human); assay: sandwich ELISA, capture by P20.1 antibody coated at 10 µg/mL, detection by rabbit anti-BAS serum
[17] = biological target: T1, hGH-BAS-γC-P4×3, human growth factor/human fibrinogen γ chain C domain fusion protein with 3 repeats of the P4 sequence (human); assay: as above

Measured: binding

B1: P20.1 antibody (monoclonal antibody produced by mouse-mouse hybridoma P20.1, FERM BP-11061) (antibody, mouse IgG1, V domains shown)
VH: QIQLVQSGPEVQKPGETVRISCKASGYTFTTAGMQWVQKMPGKSLKWIGWINTRSGVPKYAEDFKGRFAFSLETSASIAYLHINNLKNEDTATYFCAREGPGFVYWGQGTLVTVSA
VL: QTVVTQESALTTSPGETVTLTCRSSTGVVTTSNYANWVQEKPDHLFTGLIVGTNNRVPGVPPRFSGSLIGDKAALTITGAQTEDEAIYFCALWYSNHWVFGGGTKLTVL
notes: Biotinylated in the sandwich ELISA of 7-2-1 and coupled to CNBr-Sepharose in the pull-down and purification experiments; also called P20.1 Ab; monoclonal P20.1 antibody
binds: all assays above
